Measurements taken from publication PMC3794858, “NECAP 1 Regulates AP-2 Interactions to Control Vesicle Size, Number, and Cargo During Clathrin-Mediated Endocytosis” (PLoS Biology, 2013).

T1: GST–NECAP 1 (mouse) (UniProt Q9CR95)
T1 sequence: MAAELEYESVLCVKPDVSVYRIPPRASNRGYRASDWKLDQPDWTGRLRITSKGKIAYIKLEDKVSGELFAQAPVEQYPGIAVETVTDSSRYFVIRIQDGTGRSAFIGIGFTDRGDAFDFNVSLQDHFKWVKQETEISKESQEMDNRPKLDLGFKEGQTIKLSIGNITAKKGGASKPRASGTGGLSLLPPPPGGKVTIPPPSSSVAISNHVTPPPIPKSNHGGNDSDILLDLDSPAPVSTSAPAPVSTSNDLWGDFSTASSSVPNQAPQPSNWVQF

T2: GST–PHear (NECAP 1 PHear domain, aa 1–133, fused to GST) (mouse) (UniProt Q9CR95)
T2 sequence: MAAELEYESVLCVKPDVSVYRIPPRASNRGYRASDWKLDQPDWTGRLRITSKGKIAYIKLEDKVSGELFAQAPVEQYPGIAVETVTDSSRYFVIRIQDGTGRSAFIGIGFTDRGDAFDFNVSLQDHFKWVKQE

T3: GST–PHear–Ex (NECAP 1 aa 1–178 fused to GST) (mouse) (UniProt Q9CR95)
T3 sequence: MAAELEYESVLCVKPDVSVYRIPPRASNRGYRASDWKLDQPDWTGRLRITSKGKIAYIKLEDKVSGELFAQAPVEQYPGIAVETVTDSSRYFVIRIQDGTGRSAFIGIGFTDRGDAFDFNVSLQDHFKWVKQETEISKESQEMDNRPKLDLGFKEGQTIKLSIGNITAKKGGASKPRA


Legend:
GST–NECAP 1 (mouse) = target: T1, GST–NECAP 1 (mouse); assay: pull-down; GST fusion proteins precoupled to glutathione-Sepharose, COS-7 cell extract, 1 h at 4°C, 10 mM HEPES pH 7.4, 1% Triton X-100, 50 mM NaCl; Western blot; only the target purified
[1] = target: T2, GST–PHear (NECAP 1 PHear domain, aa 1–133, fused to GST) (mouse); assay: as above
[2] = target: T3, GST–PHear–Ex (NECAP 1 aa 1–178 fused to GST) (mouse); assay: as above
[3] = target: Whole AP-2 purified from brain CCVs (rabbit (endogenous in brain)); assay: pull-down; competition: AP-2 purified from rabbit brain CCVs bound to 40 µg GST-clathrin terminal domain on glutathione beads, then 1 h at 4°C with buffer or varying amounts of purified PHear–Ex; Western blot; both purified

| Molecule | binding (GST–NECAP 1 (mouse)) | binding [1] | binding [2] | binding [3] |
| --- | --- | --- | --- | --- |
| AP-2 (endogenous, COS-7 cells) (complex) | binds | binds | binds | – |
| purified PHear–Ex (soluble competitor) (domain or fragment, UniProt Q9CR95 1-178) MAAELEYESVLCVKPDVSVYRIPPRASNRGYRASDWKLDQPDWTGRLRITSKGKIAYIKLEDKVSGELFAQAPVEQYPGIAVETVTDSSRYFVIRIQDGTGRSAFIGIGFTDRGDAFDFNVSLQDHFKWVKQETEISKESQEMDNRPKLDLGFKEGQTIKLSIGNITAKKGGASKPRA | – | – | – | binds |

No constants are given. Whether binding was seen depends on the method and setting. Binding can be weak; no strength is given. For some of these results: Binding seen in cells or lysates may run through a third protein. For some of these results: Tags and fused reporters may be left off the sequences shown.
